Measurements taken from the supplement of paper PMC8728848.
The list shows a part of the results.

Experiments:
Assay in all cases: glycan array binding signal (z-score within array); higher = stronger binding
Conditions in all cases: glycan notation: IUPAC condensed, linker removed
[1] = target: Neu5Ac(a2-3)Gal(b1-3)[Fuc(a1-4)]GlcNAc
Outline: (§1)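 Glycan array binding is given as a within-array Z-score, which can be read as non-binding when negative. The arrays, 3228 of them, came from the Consortium for Functional Glycomics database and were retained only where the protein sequence was available. Z-scores were averaged across arrays of the same protein sequence at different concentrations or buffers and across linkers.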

[2] = target: Neu5Ac(a2-3)Gal(b1-3)[Fuc(a1-4)]GlcNAc(b1-3)Gal(b1-4)[Fuc(a1-3)]GlcNAc
Outline: as §1

[3] = target: Neu5Ac(a2-3)Gal(b1-3)[Neu5Ac(a2-3)Gal(b1-4)]GlcNAc
Outline: as §1

[4] = target: Neu5Ac(a2-3)Gal(b1-3)[Neu5Ac(a2-6)]GalNAc
Outline: as §1

Neu5Ac(a2-3)Gal(b1-4)Glc = target: Neu5Ac(a2-3)Gal(b1-4)Glc
Outline: as §1

[5] = target: Neu5Ac(a2-3)Gal(b1-4)GlcNAc
Outline: as §1

[6] = target: Neu5Ac(a2-3)Gal(b1-4)GlcNAc(b1-2)Man(a1-3)[GlcNAc(b1-2)Man(b1-4)GlcNAc(b1-2)Man(a1-6)]Man(b1-4)GlcNAc(b1-4)GlcNAc
Outline: as §1

[7] = target: Neu5Ac(a2-3)Gal(b1-4)GlcNAc(b1-2)Man(a1-3)[Neu5Ac(a2-6)Gal(b1-4)GlcNAc(b1-2)Man(a1-6)]Man(b1-4)GlcNAc(b1-4)GlcNAc
Outline: as §1

[8] = target: Neu5Ac(a2-3)Gal(b1-4)GlcNAc(b1-3)Gal(b1-3)GlcNAc
Outline: as §1

[9] = target: Neu5Ac(a2-3)Gal(b1-4)GlcNAc(b1-3)Gal(b1-4)GlcNAc
Outline: as §1

[10] = target: Neu5Ac(a2-3)Gal(b1-4)GlcNAc(b1-3)Gal(b1-4)GlcNAc(b1-3)Gal(b1-4)GlcNAc
Outline: as §1

[11] = target: Neu5Ac(a2-3)Gal(b1-4)GlcNAc(b1-3)Gal(b1-4)[Fuc(a1-3)]GlcNAc
Outline: as §1

[12] = target: Neu5Ac(a2-3)Gal(b1-4)GlcNAc(b1-6)[Gal(b1-3)]GalNAc
Outline: as §1

[13] = target: Neu5Ac(a2-3)Gal(b1-4)GlcNAc(b1-6)[Neu5Ac(a2-3)Gal(b1-3)]GalNAc
Outline: as §1

[14] = target: Neu5Ac(a2-3)Gal(b1-4)GlcNAc6S
Outline: as §1

[15] = target: Neu5Ac(a2-3)Gal(b1-4)[Fuc(a1-3)]GlcNAc
Outline: as §1

[16] = target: Neu5Ac(a2-3)Gal(b1-4)[Fuc(a1-3)]GlcNAc(b1-3)Gal
Outline: as §1

[17] = target: Neu5Ac(a2-3)Gal(b1-4)[Fuc(a1-3)]GlcNAc(b1-3)Gal(b1-4)GlcNAc
Outline: as §1

[18] = target: Neu5Ac(a2-3)Gal(b1-4)[Fuc(a1-3)]GlcNAc(b1-3)Gal(b1-4)[Fuc(a1-3)]GlcNAc(b1-3)Gal(b1-4)[Fuc(a1-3)]GlcNAc
Outline: as §1

[19] = target: Neu5Ac(a2-3)Gal(b1-4)[Fuc(a1-3)]GlcNAc(b1-6)[Gal(b1-3)]GalNAc
Outline: as §1

[20] = target: Neu5Ac(a2-3)Gal(b1-4)[Fuc(a1-3)]GlcNAc6S
Outline: as §1

[21] = target: Neu5Ac(a2-3)Gal6S(b1-4)GlcNAc
Outline: as §1

[22] = target: Neu5Ac(a2-3)Gal6S(b1-4)[Fuc(a1-3)]GlcNAc
Outline: as §1

Neu5Ac(a2-3)GalNAc = target: Neu5Ac(a2-3)GalNAc
Outline: as §1

[23] = target: Neu5Ac(a2-3)GalNAc(b1-4)GlcNAc
Outline: as §1

[24] = target: Neu5Ac(a2-3)[GalNAc(b1-4)]Gal(b1-4)Glc
Outline: as §1

[25] = target: Neu5Ac(a2-3)[GalNAc(b1-4)]Gal(b1-4)GlcNAc
Outline: as §1

[26] = target: Neu5Ac(a2-3)[Neu5Ac(a2-6)]GalNAc
Outline: as §1

Neu5Ac(a2-6)Gal = target: Neu5Ac(a2-6)Gal
Outline: as §1

Neu5Ac(a2-6)Gal(b1-4)Glc = target: Neu5Ac(a2-6)Gal(b1-4)Glc
Outline: as §1

[27] = target: Neu5Ac(a2-6)Gal(b1-4)GlcNAc
Outline: as §1

[28] = target: Neu5Ac(a2-6)Gal(b1-4)GlcNAc(b1-2)Man(a1-3)[Gal(b1-4)GlcNAc(b1-2)Man(a1-6)]Man(b1-4)GlcNAc(b1-4)GlcNAc
Outline: as §1

[29] = target: Neu5Ac(a2-6)Gal(b1-4)GlcNAc(b1-2)Man(a1-3)[GlcNAc(b1-2)Man(a1-6)]Man(b1-4)GlcNAc(b1-4)GlcNAc
Outline: as §1

[30] = target: Neu5Ac(a2-6)Gal(b1-4)GlcNAc(b1-2)Man(a1-3)[GlcNAc(b1-2)Man(b1-4)GlcNAc(b1-2)Man(a1-6)]Man(b1-4)GlcNAc(b1-4)GlcNAc
Outline: as §1

[31] = target: Neu5Ac(a2-6)Gal(b1-4)GlcNAc(b1-2)Man(a1-3)[Neu5Ac(a2-6)Gal(b1-4)GlcNAc(b1-2)Man(a1-6)]Man(b1-4)GlcNAc(b1-4)GlcNAc
Outline: as §1

[32] = target: Neu5Ac(a2-6)Gal(b1-4)GlcNAc(b1-2)Man(a1-6)[Gal(b1-4)GlcNAc(b1-2)Man(a1-3)]Man(b1-4)GlcNAc(b1-4)GlcNAc
Outline: as §1

[33] = target: Neu5Ac(a2-6)Gal(b1-4)GlcNAc(b1-2)Man(a1-6)[GlcNAc(b1-2)Man(a1-3)]Man(b1-4)GlcNAc(b1-4)GlcNAc
Outline: as §1

[34] = target: Neu5Ac(a2-6)Gal(b1-4)GlcNAc(b1-3)Gal(b1-4)GlcNAc
Outline: as §1

[35] = target: Neu5Ac(a2-6)Gal(b1-4)GlcNAc(b1-3)Gal(b1-4)[Fuc(a1-3)]GlcNAc(b1-3)Gal(b1-4)[Fuc(a1-3)]GlcNAc
Outline: as §1

[36] = target: Neu5Ac(a2-6)Gal(b1-4)GlcNAc6S
Outline: as §1

Neu5Ac(a2-6)GalNAc = target: Neu5Ac(a2-6)GalNAc
Outline: as §1

[37] = target: Neu5Ac(a2-6)GalNAc(b1-4)GlcNAc
Outline: as §1

Neu5Ac(a2-8)Neu5Ac = target: Neu5Ac(a2-8)Neu5Ac
Outline: as §1

[38] = target: Neu5Ac(a2-8)Neu5Ac(a2-3)Gal(b1-4)Glc
Outline: as §1

[39] = target: Neu5Ac(a2-8)Neu5Ac(a2-3)[GalNAc(b1-4)]Gal(b1-4)Glc
Outline: as §1

[40] = target: Neu5Ac(a2-8)Neu5Ac(a2-8)Neu5Ac
Outline: as §1

[41] = target: Neu5Ac(a2-8)Neu5Ac(a2-8)Neu5Ac(a2-3)Gal(b1-4)Glc
Outline: as §1

[42] = target: Neu5Ac(a2-8)Neu5Ac(a2-8)Neu5Ac(a2-3)[GalNAc(b1-4)]Gal(b1-4)Glc
Outline: as §1

[43] = target: Neu5Ac(a2-8)Neu5Ac(a2-8)Neu5Ac(a2-8)Neu5Ac(a2-3)[GalNAc(b1-4)]Gal(b1-4)Glc
Outline: as §1

[44] = target: Neu5Ac(b2-6)Gal(b1-4)GlcNAc
Outline: as §1

Neu5Ac(b2-6)GalNAc = target: Neu5Ac(b2-6)GalNAc
Outline: as §1

[45] = target: Neu5Ac9Ac(a2-6)Gal(b1-4)GlcNAc
Outline: as §1

[46] = target: Neu5Gc(a2-3)Gal(b1-3)GlcNAc
Outline: as §1

[47] = target: Neu5Gc(a2-3)Gal(b1-3)[Fuc(a1-4)]GlcNAc
Outline: as §1

Neu5Gc(a2-3)Gal(b1-4)Glc = target: Neu5Gc(a2-3)Gal(b1-4)Glc
Outline: as §1

[48] = target: Neu5Gc(a2-3)Gal(b1-4)GlcNAc
Outline: as §1

[49] = target: Neu5Gc(a2-3)Gal(b1-4)[Fuc(a1-3)]GlcNAc
Outline: as §1

[50] = target: Neu5Gc(a2-6)Gal(b1-4)GlcNAc
Outline: as §1

Neu5Gc(a2-6)GalNAc = target: Neu5Gc(a2-6)GalNAc
Outline: as §1

[51] = target: Neu5Gc(b2-6)Gal(b1-4)GlcNAc
Outline: as §1

B1: SLLPI (Mus musculus), Q9D9X8 (protein)
chain: MGICMSMYTQVLVPVDADGDHHILWSRFYERWGSCFNPCAGLVNCLPPHSSALYLCHRMEARSRAPRRQLCPPGITWLALAYLLSCLLASSKAKVFSRCELAKEMHDFGLDGYRGYNLADWVCLAYYTSGFNTNAVDHEADGSTNNGIFQISSRRWCRTLASNGPNLCRIYCTDLLNNDLKDSIVCAMKIVQEPLGLGYWEAWRHHCQGRDLSDWVDGCDF
With B1 the “glycan array binding signal (z-score)” value [1] was -0.097, the “glycan array binding signal (z-score)” value [2] was -0.883 and the “glycan array binding signal (z-score)” value [3] was -0.175. The “glycan array binding signal (z-score)” value [4] was -0.442, the “glycan array binding signal (z-score)” value (Neu5Ac(a2-3)Gal(b1-4)Glc) was -0.952 and the “glycan array binding signal (z-score)” value [5] was 0.472. For the same binder, the “glycan array binding signal (z-score)” value [6] was -0.526, the “glycan array binding signal (z-score)” value [7] was -1.03 and the “glycan array binding signal (z-score)” value [8] was -0.542. The “glycan array binding signal (z-score)” value [9] was -1.59, the “glycan array binding signal (z-score)” value [10] was 0.306 and the “glycan array binding signal (z-score)” value [11] was -0.077. The “glycan array binding signal (z-score)” value [12] was -0.749, the “glycan array binding signal (z-score)” value [13] was -0.957 and the “glycan array binding signal (z-score)” value [14] was 1.36. For the same binder, the “glycan array binding signal (z-score)” value [15] was 0.014, the “glycan array binding signal (z-score)” value [16] was 0.196 and the “glycan array binding signal (z-score)” value [17] was 1. The “glycan array binding signal (z-score)” value [18] was -0.16, the “glycan array binding signal (z-score)” value [19] was -0.335 and the “glycan array binding signal (z-score)” value [20] was -0.086. For the same binder, the “glycan array binding signal (z-score)” value [21] was 0.897, the “glycan array binding signal (z-score)” value [22] was 1.03 and the “glycan array binding signal (z-score)” value (Neu5Ac(a2-3)GalNAc) was 0.552. The “glycan array binding signal (z-score)” value [23] was 0.108, the “glycan array binding signal (z-score)” value [24] was -0.505 and the “glycan array binding signal (z-score)” value [25] was -0.093. For the same binder, the “glycan array binding signal (z-score)” value [26] was -0.71, the “glycan array binding signal (z-score)” value (Neu5Ac(a2-6)Gal) was 1.33 and the “glycan array binding signal (z-score)” value (Neu5Ac(a2-6)Gal(b1-4)Glc) was -0.414. The “glycan array binding signal (z-score)” value [27] was 0.392, the “glycan array binding signal (z-score)” value [28] was 0.555 and the “glycan array binding signal (z-score)” value [29] was -1.17. For the same binder, the “glycan array binding signal (z-score)” value [30] was -0.507, the “glycan array binding signal (z-score)” value [31] was -0.478 and the “glycan array binding signal (z-score)” value [32] was 0.212. The “glycan array binding signal (z-score)” value [33] was 0.412, the “glycan array binding signal (z-score)” value [34] was 0.144 and the “glycan array binding signal (z-score)” value [35] was -0.647. For the same binder, the “glycan array binding signal (z-score)” value [36] was 3.29, the “glycan array binding signal (z-score)” value (Neu5Ac(a2-6)GalNAc) was 1.13 and the “glycan array binding signal (z-score)” value [37] was -0.104. For the same binder, the “glycan array binding signal (z-score)” value (Neu5Ac(a2-8)Neu5Ac) was -0.158, the “glycan array binding signal (z-score)” value [38] was 0.408 and the “glycan array binding signal (z-score)” value [39] was -0.056. For the same binder, the “glycan array binding signal (z-score)” value [40] was -0.377, the “glycan array binding signal (z-score)” value [41] was -0.787 and the “glycan array binding signal (z-score)” value [42] was -1.07. The “glycan array binding signal (z-score)” value [43] was 1.09, the “glycan array binding signal (z-score)” value [44] was 0.126 and the “glycan array binding signal (z-score)” value (Neu5Ac(b2-6)GalNAc) was 0.056. For the same binder, the “glycan array binding signal (z-score)” value [45] was -0.444, the “glycan array binding signal (z-score)” value [46] was 0.822 and the “glycan array binding signal (z-score)” value [47] was 0.864. For the same binder, the “glycan array binding signal (z-score)” value (Neu5Gc(a2-3)Gal(b1-4)Glc) was 0.718, the “glycan array binding signal (z-score)” value [48] was -0.143 and the “glycan array binding signal (z-score)” value [49] was 0.59. The “glycan array binding signal (z-score)” value [50] was -0.577, the “glycan array binding signal (z-score)” value (Neu5Gc(a2-6)GalNAc) was 0.51 and the “glycan array binding signal (z-score)” value [51] was -0.026.
